Assay results as given in publication PMC10487775.
No constants are given. Whether binding was seen depends on the method and setting. In cells and extracts the contact can be indirect. Some results given as binding are weak or reduced against the parent protein; the word gives no strength.

The chains behind the UniProt entries cited, without tags or fusion partners. Where a name states a change or a piece, a line headed by the entry shows the natural chain unless it says otherwise.
UniProt C3VPR6: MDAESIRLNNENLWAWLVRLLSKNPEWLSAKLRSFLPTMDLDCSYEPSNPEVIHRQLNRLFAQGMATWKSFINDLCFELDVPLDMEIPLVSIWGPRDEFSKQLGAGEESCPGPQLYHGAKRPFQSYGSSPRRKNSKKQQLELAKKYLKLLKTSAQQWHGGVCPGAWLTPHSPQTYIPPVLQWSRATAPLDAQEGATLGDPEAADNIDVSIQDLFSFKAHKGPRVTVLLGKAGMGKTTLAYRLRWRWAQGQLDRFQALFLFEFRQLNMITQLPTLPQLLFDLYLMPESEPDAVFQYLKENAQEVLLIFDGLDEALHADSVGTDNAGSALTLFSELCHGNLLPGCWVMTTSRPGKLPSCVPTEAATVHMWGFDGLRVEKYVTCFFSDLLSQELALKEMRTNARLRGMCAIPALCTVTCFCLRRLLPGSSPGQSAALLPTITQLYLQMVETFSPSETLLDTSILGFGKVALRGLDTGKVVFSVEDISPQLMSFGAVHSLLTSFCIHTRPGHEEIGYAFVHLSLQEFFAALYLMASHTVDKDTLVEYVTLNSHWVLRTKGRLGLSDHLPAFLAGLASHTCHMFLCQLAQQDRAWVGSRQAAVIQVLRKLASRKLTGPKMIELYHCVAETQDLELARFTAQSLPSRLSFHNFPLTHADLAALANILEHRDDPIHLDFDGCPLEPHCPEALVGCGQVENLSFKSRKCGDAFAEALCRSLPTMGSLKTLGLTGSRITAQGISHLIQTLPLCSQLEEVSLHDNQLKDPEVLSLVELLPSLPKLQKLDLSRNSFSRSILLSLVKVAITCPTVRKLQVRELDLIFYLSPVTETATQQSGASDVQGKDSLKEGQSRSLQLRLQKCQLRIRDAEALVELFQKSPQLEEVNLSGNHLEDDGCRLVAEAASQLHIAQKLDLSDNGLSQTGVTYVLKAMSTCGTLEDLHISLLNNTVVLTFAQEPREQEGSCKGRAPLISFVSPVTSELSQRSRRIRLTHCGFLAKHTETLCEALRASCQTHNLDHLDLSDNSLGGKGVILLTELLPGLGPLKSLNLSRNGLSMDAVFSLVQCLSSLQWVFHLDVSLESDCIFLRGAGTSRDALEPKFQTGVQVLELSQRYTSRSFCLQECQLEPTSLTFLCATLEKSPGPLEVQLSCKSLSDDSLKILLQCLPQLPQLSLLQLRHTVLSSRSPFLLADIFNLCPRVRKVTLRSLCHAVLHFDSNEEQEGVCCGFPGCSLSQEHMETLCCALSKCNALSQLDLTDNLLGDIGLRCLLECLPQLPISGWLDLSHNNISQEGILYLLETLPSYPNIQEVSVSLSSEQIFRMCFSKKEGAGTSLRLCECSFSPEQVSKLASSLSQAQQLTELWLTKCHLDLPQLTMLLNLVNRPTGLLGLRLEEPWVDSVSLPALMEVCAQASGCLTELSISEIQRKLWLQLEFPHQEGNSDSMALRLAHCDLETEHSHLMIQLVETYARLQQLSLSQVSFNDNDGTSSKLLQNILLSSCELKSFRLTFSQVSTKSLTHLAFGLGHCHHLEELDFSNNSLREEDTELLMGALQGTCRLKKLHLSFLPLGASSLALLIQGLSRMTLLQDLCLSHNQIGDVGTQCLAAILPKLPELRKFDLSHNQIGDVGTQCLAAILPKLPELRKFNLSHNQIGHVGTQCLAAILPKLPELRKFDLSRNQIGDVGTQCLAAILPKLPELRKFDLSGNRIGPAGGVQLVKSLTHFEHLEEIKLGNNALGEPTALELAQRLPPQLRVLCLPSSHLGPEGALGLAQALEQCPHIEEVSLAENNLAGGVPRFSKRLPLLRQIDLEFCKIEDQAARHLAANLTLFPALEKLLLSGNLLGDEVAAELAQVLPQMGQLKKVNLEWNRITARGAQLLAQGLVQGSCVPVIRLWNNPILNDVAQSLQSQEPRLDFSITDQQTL
UniProt Q60680: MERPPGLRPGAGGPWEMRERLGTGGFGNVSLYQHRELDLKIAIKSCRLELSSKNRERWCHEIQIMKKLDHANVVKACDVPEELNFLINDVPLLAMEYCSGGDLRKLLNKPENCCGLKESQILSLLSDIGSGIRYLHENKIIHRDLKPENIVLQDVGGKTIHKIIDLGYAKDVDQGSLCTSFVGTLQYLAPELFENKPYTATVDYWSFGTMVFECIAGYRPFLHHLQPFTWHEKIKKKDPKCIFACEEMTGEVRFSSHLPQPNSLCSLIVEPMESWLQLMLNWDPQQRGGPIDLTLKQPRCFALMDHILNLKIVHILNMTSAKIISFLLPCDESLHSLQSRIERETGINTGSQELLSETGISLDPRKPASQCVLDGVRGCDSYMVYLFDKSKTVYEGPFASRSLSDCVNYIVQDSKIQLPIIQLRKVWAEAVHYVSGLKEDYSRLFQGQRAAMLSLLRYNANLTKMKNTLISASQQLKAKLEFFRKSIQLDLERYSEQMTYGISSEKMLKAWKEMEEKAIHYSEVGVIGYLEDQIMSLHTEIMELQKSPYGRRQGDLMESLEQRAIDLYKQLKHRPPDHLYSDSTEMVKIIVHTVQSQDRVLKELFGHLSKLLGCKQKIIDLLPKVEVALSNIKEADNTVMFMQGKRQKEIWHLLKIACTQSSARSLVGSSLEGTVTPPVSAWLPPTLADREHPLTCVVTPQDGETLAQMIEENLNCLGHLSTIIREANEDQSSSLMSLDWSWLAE

Biological target: Nucleotide-binding oligomerization domain-like receptor family caspase recruitment domain-containing five (NLRC5) (mouse (endogenous in BV2)) (UniProt C3VPR6)
Experiment: co-IP; anti-NLRC5 immunoprecipitation (magnetic beads) from extracts of BV2-shCtrl and BV2-shNlrc5 cells treated with LPS at different doses; Western blot for p-IKKα/β and IKKα/β

binding	Substance
binds	phosphorylated IKKα/β (from UniProt Q60680 1-745; O88351 1-757) (complex)
binds	IKKα/β (total) (from UniProt Q60680 1-745; O88351 1-757) (complex)
